From doi:10.1101/2023.01.07.523072 come the findings set out here.

Chains of the proteins cited; added tags and fusions are not shown.
UniProt P82874: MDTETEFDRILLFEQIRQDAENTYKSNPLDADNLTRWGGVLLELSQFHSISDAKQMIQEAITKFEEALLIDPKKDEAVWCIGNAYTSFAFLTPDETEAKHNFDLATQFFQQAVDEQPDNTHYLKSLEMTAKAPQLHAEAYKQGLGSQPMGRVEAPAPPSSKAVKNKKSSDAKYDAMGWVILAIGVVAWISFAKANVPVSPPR

Test in all cases: split reporter
Assay [1] addresses TMD-truncated Tom20-4, BiFC fusion (Arabidopsis thaliana) (UniProt P82805).
Assay [2] deals with T1, nY-Toc33 (Arabidopsis thaliana) (UniProt O23680).
T1 sequence: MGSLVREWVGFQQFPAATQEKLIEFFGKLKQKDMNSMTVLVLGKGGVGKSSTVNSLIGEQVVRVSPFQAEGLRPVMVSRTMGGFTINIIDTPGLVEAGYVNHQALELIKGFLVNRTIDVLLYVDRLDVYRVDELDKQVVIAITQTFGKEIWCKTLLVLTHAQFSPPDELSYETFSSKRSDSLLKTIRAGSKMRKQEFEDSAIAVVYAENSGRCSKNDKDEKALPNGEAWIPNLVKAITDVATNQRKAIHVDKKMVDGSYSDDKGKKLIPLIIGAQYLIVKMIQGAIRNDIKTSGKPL

Assay [3] addresses T2, nY-Tom20-2 (Arabidopsis thaliana) (UniProt P82873).
T2 sequence: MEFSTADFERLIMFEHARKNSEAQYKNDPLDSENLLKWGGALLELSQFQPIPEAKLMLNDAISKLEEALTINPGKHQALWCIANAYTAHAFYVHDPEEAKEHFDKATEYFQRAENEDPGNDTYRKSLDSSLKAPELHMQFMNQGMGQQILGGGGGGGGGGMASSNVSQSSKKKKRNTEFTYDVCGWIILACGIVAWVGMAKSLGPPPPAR

The target of assay [4] is T3, nY-Tom20-4 (Arabidopsis thaliana) (UniProt P82805).
T3 sequence: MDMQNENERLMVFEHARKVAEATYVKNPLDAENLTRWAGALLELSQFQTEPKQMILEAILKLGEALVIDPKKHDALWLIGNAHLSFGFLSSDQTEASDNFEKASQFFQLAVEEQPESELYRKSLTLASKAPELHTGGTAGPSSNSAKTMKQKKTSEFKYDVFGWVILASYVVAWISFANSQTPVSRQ

In assay [5] the target is TMD-truncated Tom20-3, BiFC fusion (Arabidopsis thaliana) (UniProt P82874).
The target in assay [6] is TMD-truncated PAP2, BiFC fusion (Arabidopsis thaliana) (UniProt Q9LMG7).
Assay [7] addresses T4, nY-PAP2 (Arabidopsis thaliana) (UniProt Q9LMG7).
T4 sequence: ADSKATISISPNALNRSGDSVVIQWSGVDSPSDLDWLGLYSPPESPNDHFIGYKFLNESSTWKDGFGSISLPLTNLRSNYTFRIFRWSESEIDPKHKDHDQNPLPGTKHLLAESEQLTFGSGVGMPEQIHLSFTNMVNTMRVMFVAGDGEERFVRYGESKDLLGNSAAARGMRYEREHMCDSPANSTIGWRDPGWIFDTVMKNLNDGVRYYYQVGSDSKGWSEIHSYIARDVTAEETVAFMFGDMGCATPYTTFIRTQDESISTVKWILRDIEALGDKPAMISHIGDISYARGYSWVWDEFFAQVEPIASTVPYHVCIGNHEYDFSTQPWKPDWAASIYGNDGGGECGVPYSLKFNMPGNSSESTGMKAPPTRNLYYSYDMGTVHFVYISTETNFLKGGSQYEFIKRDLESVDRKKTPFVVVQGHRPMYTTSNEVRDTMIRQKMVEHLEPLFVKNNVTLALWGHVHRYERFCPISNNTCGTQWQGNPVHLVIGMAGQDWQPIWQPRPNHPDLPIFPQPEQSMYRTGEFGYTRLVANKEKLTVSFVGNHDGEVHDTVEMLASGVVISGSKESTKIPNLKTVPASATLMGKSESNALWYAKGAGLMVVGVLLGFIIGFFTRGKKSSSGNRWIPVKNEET

The target in assay [8] is T5, nY-Toc34 (Arabidopsis thaliana) (UniProt Q38906).
T5 sequence: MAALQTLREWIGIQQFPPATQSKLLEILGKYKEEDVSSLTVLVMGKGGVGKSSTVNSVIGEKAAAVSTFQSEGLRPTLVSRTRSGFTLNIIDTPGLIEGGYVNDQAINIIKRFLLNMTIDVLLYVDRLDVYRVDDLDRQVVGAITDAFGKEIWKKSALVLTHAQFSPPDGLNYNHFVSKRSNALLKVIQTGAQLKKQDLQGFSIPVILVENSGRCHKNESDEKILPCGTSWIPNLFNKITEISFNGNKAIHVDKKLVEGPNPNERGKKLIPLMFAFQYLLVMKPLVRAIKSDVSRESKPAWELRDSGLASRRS

For assay [9], the target named is TMD-truncated Toc34, BiFC fusion (Arabidopsis thaliana) (UniProt Q38906).
Assay [10] deals with TMD-truncated Tom20-2, BiFC fusion (Arabidopsis thaliana) (UniProt P82873).
For assay [11], the target named is nY-Tom20-3 (Arabidopsis thaliana) (UniProt P82874).
Assay [12] has as its target TMD-truncated Toc33, BiFC fusion (Arabidopsis thaliana) (UniProt O23680).

Results are given in words; binding and its absence hold for the method and conditions named. In cells and extracts the contact can be indirect. For part of these data: A result given as binding can be weak or reduced; the word gives no strength.

As for “cY-TTOP (TTOP fused to the C-terminal half of YFP, free C terminus) (from UniProt F4K1H0)”, the binding entry in assay [1] is “no binding”; in assay [2], “binds”; in assay [3], “binds”; in assay [4] it was “binds”; in assay [5], “no binding”; in assay [6] it was “no binding”. In addition, the binding entry in assay [7] was “binds”; in assay [8], “binds”; in assay [9] it was “no binding”; in assay [10] it was “no binding”; in assay [11], “binds”; in [12], “no binding”.
